Measured values taken from PMC7188793.
No constants are given. Whether binding was seen depends on the method and setting. Binding seen in cells or lysates may run through a third protein. Some results given as binding are weak or reduced against the parent protein; the word gives no strength.

Chains of the proteins cited; added tags and fusions are not shown. Lines headed by an entry give the natural chain unless they say otherwise; changes in a name come on top. A line that says so, or that is headed by a name, gives the form on record, which may keep a tag or linker.
UniProt Q9Y297: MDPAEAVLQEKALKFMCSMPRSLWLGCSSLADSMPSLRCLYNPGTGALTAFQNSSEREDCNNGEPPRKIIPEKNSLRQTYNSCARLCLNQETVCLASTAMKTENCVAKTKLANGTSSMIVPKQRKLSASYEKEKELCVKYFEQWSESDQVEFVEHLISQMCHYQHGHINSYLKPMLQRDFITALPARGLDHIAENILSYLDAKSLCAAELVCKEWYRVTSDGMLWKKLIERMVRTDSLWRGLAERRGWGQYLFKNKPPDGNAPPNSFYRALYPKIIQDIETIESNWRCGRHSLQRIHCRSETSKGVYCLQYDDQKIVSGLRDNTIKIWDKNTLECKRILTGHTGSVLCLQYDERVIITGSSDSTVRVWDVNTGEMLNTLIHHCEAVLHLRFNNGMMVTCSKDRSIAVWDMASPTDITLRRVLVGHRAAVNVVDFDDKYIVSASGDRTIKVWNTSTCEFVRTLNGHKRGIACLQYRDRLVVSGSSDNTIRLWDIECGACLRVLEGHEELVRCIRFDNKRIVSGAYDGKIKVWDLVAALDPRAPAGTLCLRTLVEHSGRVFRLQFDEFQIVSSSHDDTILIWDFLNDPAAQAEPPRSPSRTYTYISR
UniProt Q9UM11: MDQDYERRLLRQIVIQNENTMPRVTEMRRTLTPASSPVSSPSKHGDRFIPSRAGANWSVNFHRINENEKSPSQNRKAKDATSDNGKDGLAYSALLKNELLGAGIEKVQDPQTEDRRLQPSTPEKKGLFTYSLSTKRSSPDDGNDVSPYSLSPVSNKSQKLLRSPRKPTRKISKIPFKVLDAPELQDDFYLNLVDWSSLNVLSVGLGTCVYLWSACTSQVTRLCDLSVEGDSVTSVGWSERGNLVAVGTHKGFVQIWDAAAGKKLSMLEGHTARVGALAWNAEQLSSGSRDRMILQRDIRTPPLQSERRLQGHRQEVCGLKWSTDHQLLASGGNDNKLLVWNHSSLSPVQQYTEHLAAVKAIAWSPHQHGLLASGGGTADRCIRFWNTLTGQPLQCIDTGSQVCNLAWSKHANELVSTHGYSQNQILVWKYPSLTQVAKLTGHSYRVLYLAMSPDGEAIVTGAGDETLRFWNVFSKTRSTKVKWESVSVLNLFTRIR
HA-Cdh1 SS137/138AA, expressed in 293T cells (Q9UM11, form named): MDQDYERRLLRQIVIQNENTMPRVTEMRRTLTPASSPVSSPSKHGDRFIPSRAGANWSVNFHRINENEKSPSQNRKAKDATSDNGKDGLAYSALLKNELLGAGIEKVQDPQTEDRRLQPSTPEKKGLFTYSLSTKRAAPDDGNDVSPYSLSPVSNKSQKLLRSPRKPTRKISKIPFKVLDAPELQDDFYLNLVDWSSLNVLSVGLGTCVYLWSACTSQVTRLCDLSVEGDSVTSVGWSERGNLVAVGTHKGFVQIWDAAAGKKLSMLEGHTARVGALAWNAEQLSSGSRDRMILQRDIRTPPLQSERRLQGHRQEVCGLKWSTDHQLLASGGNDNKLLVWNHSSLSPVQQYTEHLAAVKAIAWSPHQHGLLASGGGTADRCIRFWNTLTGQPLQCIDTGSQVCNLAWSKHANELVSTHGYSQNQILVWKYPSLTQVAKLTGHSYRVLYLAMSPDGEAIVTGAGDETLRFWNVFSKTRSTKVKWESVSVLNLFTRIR

Experiments:
[1] = biological target: Flag-βTRCP1, expressed in 293T cells (UniProt Q9Y297); experiment: co-IP; 293T cells transfected for 30 h, MG132 10 µM for 5 h; lysates in EBC buffer (50 mM Tris pH 8.0, 120 mM NaCl, 0.5% NP40, 1 mM DTT); antibodies on protein G beads or anti-HA beads, 4 h to overnight at 4 °C; in some panels Myc-Chk1 or Myc-Chk1^L449R co-expressed, HU, CHIR-124 or AZD7762 added
[2] = biological target: endogenous βTRCP1 of 293T cells (human (endogenous in 293T)) (UniProt Q9Y297); experiment: as above

| binding [1] | binding [2] | Substance |
| --- | --- | --- |
| binds | binds | HA-Cdh1 (wild type), expressed in 293T cells (from UniProt Q9UM11 1-496) |
|  | binds | HA-Cdh1 SS137/138AA, expressed in 293T cells (from UniProt Q9UM11 1-496) |
